Source: PMC9427776, “TTYH family members form tetrameric complexes at the cell membrane” (Communications Biology, 2022)
Changes are numbered by the printed parent chain. Names and notes keep the numbering of the source. Results are given in words; binding and its absence hold for the method and conditions named. Some results given as binding are weak or reduced against the parent protein; the word gives no strength. Tags and fused reporters may be left off the sequences shown. Each block holds one binder with its values, some of them ahead of it.

Assays:
[1] = molecular target: mTTYH3-GFP C299A (mouse) (UniProt Q6P5F7); assay: SEC; FSEC of HEK 293 cells solubilised in 1% DDM, Superdex 200 Increase, 150 mM NaCl, 50 mM Tris-HCl pH 7.5, 1 mM DDM; EGFP fluorescence; also after 10 min at 20-80 C (FSEC-TS) or with 20 mM 2-ME, both of which shift the population toward dimers
[2] = molecular target: mTTYH3-GFP C366A (mouse) (UniProt Q6P5F7); assay: as above

- binding [1]: binds
B1: mTTYH3-GFP C299A (protein, UniProt Q6P5F7 1-524)
chain: MAGVSYAAPWWVSLLHRLPHFDLRWEATSSQFRPEDADYQQALLLLGATALACLALDLLFLLFYSFWLCCRRRKTDEHLDADCCCTAWCVIITTLVCSAGIAVGFYGNGETSDGIHRATYSLRHANRTVAGVQDRVWDTAAALNRTAEPNLQSLERQLAGRQEPLRAVQRLQTLLGTLLGYTAAIPFWRNPGVSLEVLAEQVDLYDWYRWLGYLGLLLLDVIICLLVLVGLIRSSKGILVGVCLLGVLALVISWGALGLELAVSVGSSDFCVDPDTFVTKMVEEHSVLSGDILQYYLAASPRATNPFQQKLSGSHKALVEMQDVVAELLRNVPREHPATKDPLLRVQEVLNGTEVNLQHLTALVDCRSLHLDYVQALTGFCYDGVEGLIYLALFSFVTALMFSSIVCSIPHTWQQKRGPDDDGEEETAPGPRQAHDSLYRVHMPSLYSCGSSYGSEASIPAAAHTVSNAPVTEYMSQNANFQNPRCENTPLIGRESPPPSYTSSMRAKYLATSQPRPDSSGSGH

- binding [2]: binds
B2: mTTYH3-GFP C366A (protein, UniProt Q6P5F7 1-524)
chain: B1 chain with A299C, C366A
